From the supplement of paper PMC9433722
Counter-ions that a name gives are not always drawn. The list shows a part of the results. Repeats are few or missing, and single values can be far off.

test system: U2OS; assay: cell viability (CCK-8) relative to DMSO control (% of control); higher = less cytotoxic; settings: 10 µM; 48 h

| SMILES | cell viability |
| --- | --- |
| Cc1cc(C)cc(OCC2CNC(=O)O2)c1 (configuration not stated) [Metaxalone] | 104 |
| CCCc1nc(C)c2c(=O)nc(-c3cc(S(=O)(=O)N4CCN(CC)CC4)ccc3OCC)[nH]n12 [Vardenafil] | 95.7 |
| COc1cc2ncnc(Nc3ccc(F)c(Cl)c3)c2cc1OCCCN1CCOCC1 [Gefitinib] | 90.5 |
| CC(C)c1ccc2oc3nc(N)c(C(=O)O)cc3c(=O)c2c1 [Amlexanox] | 74.1 |
| CS(=O)(=O)OCCCCOS(C)(=O)=O [Busulfan] | 106 |
| CC(C)(C)NC[C@H](O)COc1cccc2c1CCCC2=O [Levobunolol·HCl] | 90.5 |
| CC(=O)O[C@H]1C[C@@H]2CC[C@@H]3[C@H](CC[C@@]4(C)[C@H]3C[C@H]([N+]3(C)CCCCC3)[C@@H]4OC(C)=O)[C@@]2(C)C[C@@H]1N1CCCCC1 [Vecuronium Bromide] | 97.8 |
| CC[C@]1(O)C[C@@H]2CN(CCc3c([nH]c4ccccc34)[C@@](C(=O)OC)(c3cc4c(cc3OC)N(C)[C@H]3[C@@](O)(C(=O)OC)[C@H](OC(C)=O)[C@]5(CC)C=CCN6CC[C@]43[C@@H]65)C2)C1 [Vinblastine . sulfate] | 60.1 |
| CC(C)[C@H](N)C(=O)OCCOCn1cnc2c(=O)nc(N)[nH]c21 [Valacyclovir·HCl] | 103 |
| CN(C)CCc1c[nH]c2ccc(C[C@H]3COC(=O)N3)cc12 [Zolmitriptan] | 115 |
| CCOc1ccccc1OCCN[C@H](C)Cc1ccc(OC)c(S(N)(=O)=O)c1 [Tamsulosin·HCl] | 110 |
| CC(C)(C)NC[C@H](O)c1ccc(O)c(CO)c1 [Levalbuterol·HCl] | 117 |

In another format: entries from further up.
SMILES | cell viability
CC(C)c1ccc2oc3nc(N)c(C(=O)O)cc3c(=O)c2c1 [Amlexanox] | 74.1
CS(=O)(=O)OCCCCOS(C)(=O)=O [Busulfan] | 106
